Test results taken from patent publication US5736517A, “Treatment of cancer with peptides” (Biomeasure, Inc., priority 1993, dated 1998).
At least one peptide structure holds a part that was inferred or is arguable (an end, a ring closure or a residue). Where a SMILES comes first, the peptide text is derived from it. [ ]: non-standard residue; d: D form. The star is where a group is joined. X1 = CC(C)C[C@@H](CN[C@@H](CC(C)C)C(N)=O)N*; pGlu = O=C1CC[C@@H](C(=O)O)N1

By UniProt entry, the sequences of proteins in these tests, tags left out. Where a name states a change or a piece, a line headed by the entry shows the natural chain unless it says otherwise.
UniProt P21729: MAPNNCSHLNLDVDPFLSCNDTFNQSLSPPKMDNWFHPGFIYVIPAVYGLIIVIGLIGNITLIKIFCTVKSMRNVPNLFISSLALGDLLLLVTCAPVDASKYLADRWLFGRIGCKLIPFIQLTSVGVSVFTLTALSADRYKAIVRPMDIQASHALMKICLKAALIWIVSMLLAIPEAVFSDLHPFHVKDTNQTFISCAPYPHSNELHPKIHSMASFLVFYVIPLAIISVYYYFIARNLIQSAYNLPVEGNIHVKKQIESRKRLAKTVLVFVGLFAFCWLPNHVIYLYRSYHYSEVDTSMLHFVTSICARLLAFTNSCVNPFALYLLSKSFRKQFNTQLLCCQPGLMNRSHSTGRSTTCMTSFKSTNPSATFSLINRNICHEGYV

What was measured:
[1] = test system: 13762NF rat mammary adenocarcinoma; assay: 13762NF rat mammary adenocarcinoma, subcutaneous tumor assay; assay type: in vivo; details: for Tumor Size Day 9: mean ± s.e.m.; for Tumor Size Day 15: (Length + Width/2)mm, mean S.E.M.; for effect on tumor growth: 8 days
[2] = target: T1, bombesin receptors of mouse colon cancer (MC-26) cells (Mus musculus, UniProt P21729); assay: 125I-GRP binding to MC-26 tumor membranes
T1 construct: endogenous in cells; host or cells: MC-26 mouse colon carcinoma (tumour membranes)
Protocol: The bombesin analog BIM-26147 was tested for the ability to inhibit growth of the mouse colon tumor MC-26.
(§1) For both FIGS. 1 and 2, aliquots of tumor membranes (150 μg protein) were incubated with 20 pM of ^125 I-GRP in the presence of increasing concentrations of peptides, and the displacement of specifically bound ^125 I-GRP to MC-26 tumor membranes by increasing concentrations of peptides is presented as a percent of maximum specific binding of ^125 I-GRP. Each data point is the mean of two observations within an experiment, and represents two experiments. Table 1 presents the IC50 for ^125 I-GRP binding to mouse colon cancer (MC-26) cells and normal colon mucosal cells in the presence of bombesin receptor antagonists. The data in Table 1 was calculated from FIGS. 1 and 2. The fold difference is relative to bombesin (BBS) values.

[3] = test system: 13762NF rat mammary adenocarcinoma; assay: 13762NF rat mammary adenocarcinoma, 7-day SRCA; assay type: in vivo; details: for Change in Tumor Size / % Test/Control: b.i.d., q.d. 1-6; for Change in Tumor Size: day 0 to day 7, mean ± S.E.M.
[4] = test system: H-1579 human prostate tumor; assay: H-1579 human prostate tumor, 11-day SRCA; assay type: in vivo; details: highest dose tested, 250 μg/injection, i.p., q.d. 1-11 (FIG. 7)
[5] = test system: MT/W9A-R rat mammary adenocarcinoma; assay: MT/W9A-R rat mammary adenocarcinoma, 11-day SRCA; assay type: in vivo; details: for % Test/Control / Tumor Size Day 14: b.i.d., q.d. 1-10; for Tumor Size Day 14: mean ± S.E.M.
MCF-7 human breast tumor [6] = assay: MCF-7 human breast tumor, 15-day SRCA in estrogen pelleted athymic nude mice
CX-5 human colon tumor = assay: CX-5 human colon tumor, 11-day subrenal capsule assay (SRCA); assay type: in vivo; details: for % Test/Control / Change in Tumor Size: b.i.d; for Change in Tumor Size: day 0 to day 11, mean ± S.E.M.
Text: The human colon tumor used for testing was the CX-5 tumor, which was surgically removed from a human and carried as an implant in athymic nude mice. The patient had been untreated prior to surgical removal of the tissue specimen. […] CX-5 was a moderately well-differentiated, mucin secreting adenocarcinoma. The tumor is arranged in acini lined by one or more layers of lining cells which have round to oval vesicular nuclei containing prominent nucleoli. There are frequent mitoses, and the cells have eosinophilic cytoplasm. The acini contain abundant amounts of mucin.
We briefly describe subrenal capsule assay as follows. Tumors, 6-15 mm in diameter, were removed from the athymic mice and immediately placed in RPMI medium (Gibco, Grand Island, N.Y.) at room temperature. In the case of the larger tumors (over 10 mm in diameter), where the central parts frequently contained necrotic tissue, viable tissue was dissected out and placed in a separate Petri dish. The tissue pieces, while immersed in the medium, were cut with scalpels into cubes of approximately 1 mm.
Nude mice were anesthetized by i.p. injection of chloral hydrate (0.35-0.45 ml of a 0.22M solution). A shallow incision was made in the left flank and the kidney was exteriorized. A shallow incision about 3 mm long was made on the convex side of the kidney near the caudal pole. The tissue fragment was implanted (one xenograft in each animal) below the transparent capsule by means of a small trochar (1.2 mm bore). Immediately after implantation,the tumor size was measured as described below. The abdominal wall was closed with sutures and the skin with clamps. To avoid hypothermia after the anesthesia, the animals were kept under an infra-red lamp for about 1 h, and then randomized into cages.

MCF-7 human breast tumor [7] = assay: MCF-7 human breast tumor, 20-Day SRCA; assay type: in vivo
[8] = target: T2, bombesin receptors of normal mouse colon mucosal membranes (Mus musculus, UniProt P21729); assay: 125I-GRP binding to normal mouse colon mucosal membranes
T2 construct: from tissue; host or cells: normal mouse colon mucosa (membranes)
Protocol: as §1

[9] = 50 μg/inj., s.c. as an infusion, b.i.d., q.d. 1-9
[10] = 50 μg/inj., s.c. b.i.d., q.d. 1-9
[11] = 250 μg/inj., s.c. b.i.d., q.d. 1-9
[12] = BL89-128, 10 μg/inj., i.p., QD1-10
[13] = BL89-128, 50 μg/inj., i.p., QD1-10
[14] = BL89-128, 250 μg/inj., i.p., QD1-10
[15] = BL89-130, Group 2, 50 μg/inj., q.d 1-10
[16] = BL89-130, Group 3, 250 μg/inj., q.d. 1-10
[17] = BL89-130, Group 4, 50 μg/inj., q.d. 1-10

CCCNC(=O)[C@H](CC(C)C)NC(=O)[C@H](Cc1c[nH]cn1)NC(=O)CNC(=O)[C@@H](NC(=O)[C@H](C)NC(=O)[C@H](Cc1c[nH]c2ccccc12)NC(=O)[C@H](CCC(N)=O)NC(=O)[C@H](N)Cc1ccccc1)C(C)C [BIM-26147, D-Phe-Gln-Trp-Ala-Val-Gly-His-Leu-propylamide]
Lag Time (days post implantation to reach approximately 5.0 mm average diameter) [1, 9]: 10.0 days
Tumor Size Day 9 [1, 9]: 4.9 ± 1.6 mm
Lag Time (days post implantation to reach approximately 5.0 mm average diameter) [1, 10]: 8.6 days
Tumor Size Day 9 [1, 10]: 6.9 ± 0.24 mm
Tumor Size Day 15 ([1]; 50 μg/inj., s.c. infusion, b.i.d., q.d. 1-14): 18.3 ± 3.46 mm
Tumor Size Day 15 ([1]; 50 μg/inj., s.c., b.i.d., q.d. 1-14): 20.07 ± 1.83 mm
effect on tumor growth ([1]; 50 μg/injection as a s.c. infusion around the tumor): growth inhibitory
Lag Time (days post implantation to reach approximately 5.0 mm average diameter) [1, 11]: 11.3 days
Tumor Size Day 9 [1, 11]: 3.4 ± 1.8 mm
Tumor Size Day 15 ([1]; 250 μg/inj., s.c., b.i.d., q.d. 1-14): 15.2 ± 3.35 mm
Tumor Response ([1]; 13762NF, Rat, 14-Day SC (Days 9, 14)): +
% Test/Control ([1]; Day 9, 50 μg/inj., s.c. as an infusion, b.i.d., q.d. 1-9): 87%
% Test/Control ([1]; Day 9, 50 μg/inj., s.c. b.i.d., q.d. 1-9): 123%
% Test/Control ([1]; Day 9, high dose, 250 μg/inj., s.c. b.i.d., q.d. 1-9): 61%
% Test/Control ([1]; Day 15, 50 μg/inj., s.c. infusion, b.i.d., q.d. 1-14): 100%
% Test/Control ([1]; Day 15, 50 μg/inj., s.c., b.i.d., q.d. 1-14): 114%
% Test/Control ([1]; Day 15, 250 μg/inj., s.c., b.i.d., q.d. 1-14): 83%
growth inhibitory effects ([1]; high dose, by day 14 (Table 7)): still in evidence
effect on tumor growth ([1]; low dose (50 μg/injection), s.c. on the side opposite of the tumor): no tumor growth inhibitory effects
fold difference relative to bombesin (BBS) [2]: 5.6 fold

CC(C)C[C@@H](CN[C@@H](Cc1ccccc1)C(N)=O)NC(=O)[C@H](Cc1c[nH]cn1)NC(=O)CNC(=O)[C@@H](NC(=O)[C@H](C)NC(=O)[C@H](Cc1c[nH]c2ccccc12)NC(=O)[C@H](CCC(N)=O)NC(=O)[C@H](N)Cc1ccc(Cl)cc1)C(C)C [BIM-26159, D-Cpa-Gln-Trp-Ala-Val-Gly-His-Leu.psi.[CH2 NH]Phe-NH2]
Change in Tumor Size ([3]; 10 μg/inj., s.c.): 17.20 ± 1.23 omu
Change in Tumor Size ([3]; 50 μg/inj., s.c.): 12.88 ± 2.67 omu
Change in Tumor Size ([3]; 250 μg/inj., i.p.): 11.17 ± 2.70 omu
Tumor Response ([3]; 13762NF, Rat, 7-Day SRCA): +
% Test/Control ([3]; high dose, 250 μg/inj., i.p.): 83%
% Test/Control ([3]; lowest dose, 10 μg/inj., s.c.): 128%
% Test/Control ([3]; middle dose, 50 μg/inj., s.c.): 96%
Tumor Response [4]: responded dramatically
% Test/Control ([5]; 10 μg/inj., i.p.): 107%
Tumor Size Day 14 ([5]; 10 μg/inj., i.p.): 24.5 ± 2.68 omu
% Test/Control ([5]; 150 μg/inj., i.p.): 73%
Tumor Size Day 14 ([5]; 150 μg/inj., i.p., p < 0.05): 16.7 ± 1.91 omu
% Test/Control ([5]; 250 μg/inj. i.p.): 104%
Tumor Size Day 14 ([5]; 250 μg/inj. i.p.): 23.9 ± 3.72 omu
Tumor Response ([5]; MT/W9A-4, Rat, 11-Day SRCA): +
effect on tumor ([5]; high dose (250 μg)): inactive
effect on tumor ([5]; low dose (10 μg)): inactive
effect on tumor ([5]; middle dose (150 μg), p<0.05): significantly inhibited
Change in Tumor Size (MCF-7 human breast tumor [6]; E2 pelleted, 250 μg/inj., i.p. b.i.d., q.d. 1-14, day 0 to day 15, mean ± S.E.M.): -1.38 ± 0.74 omu
Tumor Response (MCF-7 human breast tumor [6]; MCF-7, Human, 15-Day SCRA): +
effect on tumor size (MCF-7 human breast tumor [6]; estrogen pelleted animals (Gp.3)): induced a decrease in tumor size
effect on tumor growth (CX-5 human colon tumor; 10 μg, intraperitoneal (i.p.)): significantly inhibited growth of the tumor
effect on tumor growth (CX-5 human colon tumor; 50 μg, intraperitoneal (i.p.)): significantly inhibited growth of the tumor
% Test/Control (CX-5 human colon tumor; [12]): 64%
Change in Tumor Size (CX-5 human colon tumor; [12]): 5.60 ± 0.84 omu
% Test/Control (CX-5 human colon tumor; [13]): 70%
Change in Tumor Size (CX-5 human colon tumor; [13]): 6.10 ± 1.18 omu
% Test/Control (CX-5 human colon tumor; [14]): 71%
Change in Tumor Size (CX-5 human colon tumor; [14]): 6.17 ± 1.56 omu
% Test/Control (CX-5 human colon tumor; [15]): 26%
Change in Tumor Size (CX-5 human colon tumor; [15]): 1.83 ± 0.91 omu
% Test/Control (CX-5 human colon tumor; [16]): 66%
Change in Tumor Size (CX-5 human colon tumor; [16]): 4.67 ± 1.41 omu
% Test/Control (CX-5 human colon tumor; [17]): 45%
Change in Tumor Size (CX-5 human colon tumor; [17]): 3.20 ± 1.45 omu
effect on tumor growth (CX-5 human colon tumor; high dose 250 μg, i.p.): inhibited tumor growth
effect on tumor growth (CX-5 human colon tumor; s.c. administration compared with i.p.): greater inhibition of tumor growth

CC(C)C[C@H](NC(=O)[C@H](CC(C)C)NC(=O)[C@H](Cc1c[nH]cn1)NC(=O)CNC(=O)[C@@H](NC(=O)[C@H](C)NC(=O)[C@H](Cc1c[nH]c2ccccc12)NC(=O)[C@H](CCC(N)=O)NC(=O)[C@H](N)Cc1ccccc1)C(C)C)C(N)=O [BIM-26187, D-Phe-Gln-Trp-Ala-Val-Gly-His-Leu-Leu-NH2]
Tumor Response (MCF-7 human breast tumor [7]): +
effect on tumor size (CX-5 human colon tumor; 50 μg/injection, i.p., b.i.d., q.d. 1-13, compared to BIM-26190 and BIM-230146 (FIG. 5)): significant reduction in the size of the tumor

CC(C)C[C@@H](CN[C@@H](CC(C)C)C(N)=O)NC(=O)[C@H](Cc1c[nH]cn1)NC(=O)CNC(=O)[C@@H](NC(=O)[C@H](C)NC(=O)[C@H](Cc1c[nH]c2ccccc12)NC(=O)[C@H](CCC(N)=O)NC(=O)[C@H](CC(N)=O)NC(=O)CNC(=O)[C@H](CC(C)C)NC(=O)[C@H](CCCNC(=N)N)NC(=O)[C@H](CCC(N)=O)NC(=O)[C@@H]1CCC(=O)N1)C(C)C [Leu^13 --.psi.(CH2,NH)--Leu^14 --BBS, Leu^13 .psi.[CH2 NH]Leu^14 bombesin] ([pGlu]QRLGNQWAVGH-X1)
fold difference relative to bombesin (BBS) [8]: 107 fold
fold difference relative to bombesin (BBS) [2]: 100 fold
